Data as given in PubChem BioAssay AID1159578 (Peter MacCallum Cancer Centre, 2015)

- Screen: 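Knock-downs that alter how fast lymphatic endothelial cells migrate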 (primary screen)
- Cells: human lymphatic endothelial cells
- Knock-down reagent: siRNA pool against human genes, 40 nM
- Timing: 48 h after transfection
- Read-out: 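Cells stained with dye and imaged after a scratch; covered wound area and nuclei counted, duplicates averaged, migration set against mock wells and turned into a robust z-score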
- Scale: migration robust z-score: higher = faster migration into the scratch; nuclei per well: higher = more cells in the well
- Active means: 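Migration changed when robust z exceeds 2 or falls below -2 and mean nuclei number is at least 3300; otherwise not called changed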
- Meaning of the calls: active = migration changed; inactive = no migration change, or too few cells
Shown is a random part of about 18,000 reagents. In the full data, about 1,030 (5.7%) got an active call. 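Inactive calls also include pools with fewer than 3300 nuclei, whose migration was not assessed.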 Raw values vary from plate to plate and are shown uncorrected. Further read-outs or replicates are left out here.

For ZNF3, what does the deposit list?
migration robust z-score: -0.34; nuclei per well, duplicate mean: 4895; Outcome: inactive

For HSPA2, what does the deposit list?
migration robust z-score: 0.13; nuclei per well, duplicate mean: 5440; Outcome: inactive

What is on record for LRRTM3?
migration robust z-score: 0.45; nuclei per well, duplicate mean: 6425; Outcome: inactive

For OR4N3P, what was measured?
migration robust z-score: -2.7; nuclei per well, duplicate mean: 3518; Outcome: active

How did the screen score GLRA4?
migration robust z-score: 0.75; nuclei per well, duplicate mean: 5390; Outcome: inactive

What is on record for IMPG1?
migration robust z-score: -0.07; nuclei per well, duplicate mean: 5302; Outcome: inactive

For RDH13, what was measured?
migration robust z-score: 1.56; nuclei per well, duplicate mean: 5708; Outcome: inactive

What is on record for TSPAN2?
migration robust z-score: -4.32; nuclei per well, duplicate mean: 2863; Outcome: inactive

For BAG2, what was measured?
migration robust z-score: 1.56; nuclei per well, duplicate mean: 4257; Outcome: inactive

What is on record for MAD1L1?
migration robust z-score: 1.15; nuclei per well, duplicate mean: 6213; Outcome: inactive

Which result is listed for ZBTB26?
migration robust z-score: -0.05; nuclei per well, duplicate mean: 5786; Outcome: inactive

What did the screen give for OSBPL8?
migration robust z-score: 0.58; nuclei per well, duplicate mean: 5985; Outcome: inactive

How did the screen score IFT20?
migration robust z-score: -0.76; nuclei per well, duplicate mean: 6834; Outcome: inactive

Records listed above called active:
OR4N3P — migration robust z-score = -2.7; nuclei per well, duplicate mean = 3518; Outcome = active

The results go on:
Which result is listed for SNRNP25?
migration robust z-score: -1.09; nuclei per well, duplicate mean: 4648; Outcome: inactive

What did the screen give for MKNK1?
migration robust z-score: -0.73; nuclei per well, duplicate mean: 5247; Outcome: inactive

What is on record for SNX20?
migration robust z-score: -0.36; nuclei per well, duplicate mean: 5684; Outcome: inactive

What did the screen give for PLIN5?
migration robust z-score: -0.64; nuclei per well, duplicate mean: 4508; Outcome: inactive

Which result is listed for DOK6?
migration robust z-score: -0.3; nuclei per well, duplicate mean: 5693; Outcome: inactive

What is on record for DENND10P1?
migration robust z-score: -1.48; nuclei per well, duplicate mean: 5794; Outcome: inactive

Which result is listed for CCDC157?
migration robust z-score: 0.67; nuclei per well, duplicate mean: 5890; Outcome: inactive

For ALKBH6, what does the deposit list?
migration robust z-score: -0.08; nuclei per well, duplicate mean: 5470; Outcome: inactive
